# Experimental data published in patent US20250032493A1, “Methods for Treating Diseases Using MALT1 Inhibitors” (RARIFIED BIOSCIENCES, INC., priority 2021, published 2025).
# Tests used:
# [1] = system: rat collagen induced arthritis (CIA) model; test: Rat collagen-induced arthritis model: clinical score; conditions: in vivo
# [2] = system: splenic Tregs; test: Rat CIA model: splenic Treg levels; conditions: in vivo
# Protocol: For isolation of synovial fluid prior to study termination, animals were anesthetized and the skin on the hind limbs were separated to ensure exposure of knee joint. A small incision was made near the top of the knee joint and the articular cavity was rinsed with 60 μl phosphate-buffered saline (PBS) for 2 time and ˜50-60 μl synovial fluid was collected. The synovial fluid samples were spun down, and the supernatant stored at −80° C. prior to cytokine analysis. At study termination, plasma was prepared from whole blood and stored at −80° C. prior to cytokine analysis and measurement of total and anti-collagen IgG. Single cell suspensions were prepared from harvested spleens following standard methods and Treg frequencies measured by flow cytometry-based immunophenotyping of freshly isolated cells.
# Harvested spleens were homogenized in cold PBS and cellular debris removed by passing through a […] cell strainer. The cell suspension was centrifuged at 300×g for 5 min at 4° C. and the pellet was treated with 1×RBC lysis buffer per manufacturer's protocol (Thermofisher). The washed cell pellet was resuspended for a final concentration of 5-10×10^6 cells/ml and 100 μl of cell suspension was processed for immunophenotyping. […] Cells were washed with cold FACS wash buffer (BD) and fixed with 1×FoxP3/Transcription Factor Fixation Buffer (Thermofisher) for overnight at 4° C. […] Cells were washed 2-3× with the permeabilization and wash buffer as mentioned earlier, and finally resuspended in FACS wash buffer. Samples were acquired on a BD LSRFortessa flow cytometer and data analyzed using the FlowJo software (BD).
smiles,measurement,setting,value
CO[C@@H](C)c1c(NC(=O)Nc2ccnc(C(F)(F)F)c2)cnc2cc(Cl)nn12 [REO-981],AUC for a 50% reduction in disease score,[1],"31,500 ng*h/ml"
same,drug concentration AUC achieving a 50% effect on disease score,[1],"31,500 ng*hr/ml"
same,log10AUC value at ~50% reduction in the clinical score,[1],~1.5 μg*hr/mL
same,log10Cmax value at ~50% reduction in the clinical score,[1],~3.1 ng/mL
same,AUC for a 50% reduction in Treg numbers,[2],"155,000 ng*h/ml"
same,drug concentration AUC reducing Treg numbers by 50% compared to naïve animals,[2],"155,000 ng*hr/ml"
same,log10AUC value at ~40% reduction in Treg levels,[2],~1.9 μg*hr/mL
same,log10Cmax value at ~40% reduction in Treg levels,[2],~3.6 ng/mL
